Literature values as cited in US20220233487A1, “PREPARATION FOR USE IN WEIGHT MANAGEMENT COMPRISING OMEGA-3 FATTY ACID SALTS AND BASIC AMINO ACIDS” (Evonik Operations GmbH, priority 2019, published 2022).

NCCC[C@H](N)C(=O)O [L-ornithine]
pKa-values: pKCOOH: pKCOOH: 1.94 | pKa-values: pKalpha-NH2: pKalpha-NH2: 8.65 | pKa-values: pKdelta-NH2: pKdelta-NH2: 10.76
